In assay [1] the target is full length chicken N-cadherin with the mutation E89A expressed on K562 cells (chicken) (UniProt P10288). As to the kind of experiment: adhesion, data not shown.
The target is the same in assay [2]. Nature of the assay: adhesion of K562 E89A cells to coated N-cadherin Fc.

This is an account of results in US20080274950A1 (BABRAHAM INSTITUTE, published 2008).

No constants are given. Whether binding was seen depends on the method and setting. Some entries that bind do so weakly or less than the wild type. For some assays here: Where a sequence is shown, tags or fusion partners need not be part of it.

B1: N-cadherin with the N-terminus extended by a single Cys (protein, chicken)
chain: CDWVIPPINLPENSRGPFPQELVRIRSDRDKSLSLRYSVTGPGADQPPTGIFIINPISGQLSVTKPLDREQIASFHLRAHAVDVNGNQVENPIDIVINVIDMNDNRPEFLHQVWNGTVPEGSKPGTYVMTVTAIDADDPNAQNGMLRYRILSQAPSSPSPNMFTINNETGDIITVAAGLDREKVQQYTLIIQATDMEGNPTYGLSNTATAVITVTDVNDNPPEFTAMTFYGEVPENRVDVIVANLTVTDKDQPHTPAWNARYQMTGGDPTGQFTILTDPNSNDGLVTVVKPIDFETNRMFVLTVAAENQVPLAKGIQHPPQSTATVSITVIDVNESPYFVPNPKLVRQEEGLLAGSMLTTFTARDPDRYMQQTSLRYSKLSDPANWLKIDPVNGQITTTAVLDRESIYVQNNMYNATFLASDNGIPPMSGTGTLQIYLLDINDNAPQVNPKEATTCETLQPNAINITAVDPDIDPNAGPFAFELPDSPPSIKRNWTIVRISGDHAQLSLRIRFLEAGIYDVPIVITDSGNPHASSTSVLKVKVCQCDINGDCTDVDRIVGAGLGT
B1: the binding result in assay [1] was “binds”.

B2: truncated chicken N-cadherin Fc fusion protein with the mutation W2G, containing only cadherin domains EC1 and EC2 (Fc fusion, UniProt P10288 165-387, looked up, not shown: a dimerising Fc or GST)
chain: DGVIPPINLPENSRGPFPQELVRIRSDRDKSLSLRYSVTGPGADQPPTGIFIINPISGQLSVTKPLDREQIASFHLRAHAVDVNGNQVENPIDIVINVIDMNDNRPEFLHQVWNGTVPEGSKPGTYVMTVTAIDADDPNAQNGMLRYRILSQAPSSPSPNMFTINNETGDIITVAAGLDREKVQQYTLIIQATDMEGNPTYGLSNTATAVITVTDVNDNPPEF
For the molecule B2, the binding entry in assay [2] was “binds”.
